Assay results published in doi:10.1101/2022.09.09.507380.
These are yes or no findings as the source states them, for the method shown. Binding seen in cells or lysates may run through a third protein. A yes stands for co-enrichment or nearness to the bait. Other partners may have been found. A no says only that the protein was not detected with the bait.

By UniProt entry, the sequences of proteins in these tests, tags left out.
UniProt P36873: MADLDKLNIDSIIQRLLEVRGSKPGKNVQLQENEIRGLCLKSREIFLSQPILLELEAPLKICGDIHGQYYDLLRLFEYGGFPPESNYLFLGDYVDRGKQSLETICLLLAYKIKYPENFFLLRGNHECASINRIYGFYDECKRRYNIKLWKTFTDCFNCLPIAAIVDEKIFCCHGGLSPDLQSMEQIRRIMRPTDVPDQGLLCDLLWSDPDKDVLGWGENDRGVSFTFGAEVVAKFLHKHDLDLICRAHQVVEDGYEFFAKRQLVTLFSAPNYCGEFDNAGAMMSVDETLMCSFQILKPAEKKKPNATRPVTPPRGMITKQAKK
UniProt P62140: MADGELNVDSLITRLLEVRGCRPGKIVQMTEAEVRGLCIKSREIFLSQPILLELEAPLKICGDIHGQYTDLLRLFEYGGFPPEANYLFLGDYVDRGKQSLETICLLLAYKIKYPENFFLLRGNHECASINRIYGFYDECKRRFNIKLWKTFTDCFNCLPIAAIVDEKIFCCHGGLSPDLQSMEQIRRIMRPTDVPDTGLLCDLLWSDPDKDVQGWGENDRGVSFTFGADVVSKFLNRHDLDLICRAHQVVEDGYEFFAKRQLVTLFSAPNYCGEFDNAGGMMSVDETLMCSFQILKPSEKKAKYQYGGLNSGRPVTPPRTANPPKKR

How the values were obtained:
[1] = biological target: GFP-hPP1γ (pEGFP expression plasmid, stable cell lines) (human) (UniProt P36873); test: affinity purification with mass spectrometry
[2] = biological target: hPP1β-GFP (pEGFP expression plasmid, stable cell lines) (human) (UniProt P62140); test: affinity purification with mass spectrometry

B1: RASSF7 (endogenous) (protein, UniProt Q02833 1-373)
chain: MLLGLAAMELKVWVDGIQRVVCGVSEQTTCQEVVIALAQAIGQTGRFVLVQRLREKERQLLPQECPVGAQATCGQFASDVQFVLRRTGPSLAGRPSSDSCPPPERCLIRASLPVKPRAALGCEPRKTLTPEPAPSLSRPGPAAPVTPTPGCCTDLRGLELRVQRNAEELGHEAFWEQELRREQAREREGQARLQALSAATAEHAARLQALDAQARALEAELQLAAEAPGPPSPMASATERLHQDLAVQERQSAEVQGSLALVSRALEAAERALQAQAQELEELNRELRQCNLQQFIQQTGAALPPPPRPDRGPPGTQGPLPPAREESLLGAPSESHAGAQPRPRGGPHDAELLEVAAAPAPEWCPLAAQPQAL
Question: With B1 as the binder, how does the binding [1] read?
Answer: no binding

Question: What about the binding [2] of the same binder?
Answer: no binding

B2: RASSF8 (endogenous) (protein, UniProt Q8NHQ8 1-419)
chain: MELKVWVDGVQRIVCGVTEVTTCQEVVIALAQAIGRTGRYTLIEKWRDTERHLAPHENPIISLNKWGQYASDVQLILRRTGPSLSERPTSDSVARIPERTLYRQSLPPLAKLRPQIDKSIKRREPKRKSLTFTGGAKGLMDIFGKGKETEFKQKVLNNCKTTADELKKLIRLQTEKLQSIEKQLESNEIEIRFWEQKYNSNLEEEIVRLEQKIKRNDVEIEEEEFWENELQIEQENEKQLKDQLQEIRQKITECENKLKDYLAQIRTMESGLEAEKLQREVQEAQVNEEEVKGKIGKVKGEIDIQGQQSLRLENGIKAVERSLGQATKRLQDKEQELEQLTKELRQVNLQQFIQQTGTKVTVLPAEPIEIEASHADIEREAPFQSGSLKRPGSSRQLPSNLRILQNPISSGFNPEGIYV
Question: B2 was tested. Which binding [1] did it give?
Answer: no binding

Question: And the binding [2]?
Answer: no binding
